Results are given in words; binding and its absence hold for the method and conditions named. In cells and extracts the contact can be indirect. These calls come from enrichment with a bait or labelling near it, and not all partners need be listed.
T1: CBLL1 (human (endogenous in HUVEC)) (UniProt Q75N03)
T1 sequence: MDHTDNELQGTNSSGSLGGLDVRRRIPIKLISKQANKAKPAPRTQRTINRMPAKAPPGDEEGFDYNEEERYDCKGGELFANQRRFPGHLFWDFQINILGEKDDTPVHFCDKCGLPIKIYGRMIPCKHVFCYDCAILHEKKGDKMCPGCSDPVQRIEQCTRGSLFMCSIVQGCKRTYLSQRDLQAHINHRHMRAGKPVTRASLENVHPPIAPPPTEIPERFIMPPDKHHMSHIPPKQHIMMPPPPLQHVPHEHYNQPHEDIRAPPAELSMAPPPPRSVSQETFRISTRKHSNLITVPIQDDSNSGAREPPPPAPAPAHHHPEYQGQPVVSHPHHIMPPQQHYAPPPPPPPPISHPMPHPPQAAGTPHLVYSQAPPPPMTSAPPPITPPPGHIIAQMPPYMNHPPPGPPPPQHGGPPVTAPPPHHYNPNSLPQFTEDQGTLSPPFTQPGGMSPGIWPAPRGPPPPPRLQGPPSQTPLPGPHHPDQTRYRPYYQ

Amino acid sequences for entries named in this document (tags omitted).
UniProt Q9NYF8: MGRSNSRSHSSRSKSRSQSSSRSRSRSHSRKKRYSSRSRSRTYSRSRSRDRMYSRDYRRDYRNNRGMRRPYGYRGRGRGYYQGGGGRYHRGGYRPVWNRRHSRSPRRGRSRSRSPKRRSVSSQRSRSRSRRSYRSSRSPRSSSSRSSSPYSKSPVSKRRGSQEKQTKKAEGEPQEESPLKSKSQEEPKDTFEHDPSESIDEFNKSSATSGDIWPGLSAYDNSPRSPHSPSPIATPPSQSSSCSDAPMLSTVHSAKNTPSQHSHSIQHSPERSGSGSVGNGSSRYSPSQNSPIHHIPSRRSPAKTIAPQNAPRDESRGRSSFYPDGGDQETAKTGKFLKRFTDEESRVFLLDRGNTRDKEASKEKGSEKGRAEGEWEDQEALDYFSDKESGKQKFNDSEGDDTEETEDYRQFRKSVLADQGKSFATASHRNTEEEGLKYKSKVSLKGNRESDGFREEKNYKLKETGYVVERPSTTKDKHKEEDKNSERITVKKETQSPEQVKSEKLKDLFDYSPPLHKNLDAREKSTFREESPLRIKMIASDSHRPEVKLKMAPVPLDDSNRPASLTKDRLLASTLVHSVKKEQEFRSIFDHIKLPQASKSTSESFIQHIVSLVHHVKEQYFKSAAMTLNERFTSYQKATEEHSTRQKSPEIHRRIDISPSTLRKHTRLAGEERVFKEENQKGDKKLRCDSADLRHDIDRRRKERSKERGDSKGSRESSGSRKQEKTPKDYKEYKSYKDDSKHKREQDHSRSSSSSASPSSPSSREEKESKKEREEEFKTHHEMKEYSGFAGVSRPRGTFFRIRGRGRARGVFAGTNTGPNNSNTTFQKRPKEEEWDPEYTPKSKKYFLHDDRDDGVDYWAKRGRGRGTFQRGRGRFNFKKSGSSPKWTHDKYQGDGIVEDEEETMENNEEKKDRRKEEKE
UniProt O00571: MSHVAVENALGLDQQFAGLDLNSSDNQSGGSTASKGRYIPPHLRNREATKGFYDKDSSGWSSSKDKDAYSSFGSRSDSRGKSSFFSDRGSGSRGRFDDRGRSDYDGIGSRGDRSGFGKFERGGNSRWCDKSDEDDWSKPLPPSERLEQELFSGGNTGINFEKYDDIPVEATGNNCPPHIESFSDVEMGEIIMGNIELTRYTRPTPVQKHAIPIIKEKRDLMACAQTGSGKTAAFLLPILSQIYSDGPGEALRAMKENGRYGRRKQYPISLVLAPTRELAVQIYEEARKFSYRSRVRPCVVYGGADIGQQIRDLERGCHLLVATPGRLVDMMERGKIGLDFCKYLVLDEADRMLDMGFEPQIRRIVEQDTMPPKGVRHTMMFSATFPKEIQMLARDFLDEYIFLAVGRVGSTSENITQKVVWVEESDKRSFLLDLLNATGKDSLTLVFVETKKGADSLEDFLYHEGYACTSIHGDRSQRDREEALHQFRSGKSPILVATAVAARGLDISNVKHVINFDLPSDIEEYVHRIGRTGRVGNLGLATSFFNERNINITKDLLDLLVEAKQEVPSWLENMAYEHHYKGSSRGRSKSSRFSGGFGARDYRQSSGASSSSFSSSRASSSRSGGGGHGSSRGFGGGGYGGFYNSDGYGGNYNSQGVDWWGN
UniProt P51116: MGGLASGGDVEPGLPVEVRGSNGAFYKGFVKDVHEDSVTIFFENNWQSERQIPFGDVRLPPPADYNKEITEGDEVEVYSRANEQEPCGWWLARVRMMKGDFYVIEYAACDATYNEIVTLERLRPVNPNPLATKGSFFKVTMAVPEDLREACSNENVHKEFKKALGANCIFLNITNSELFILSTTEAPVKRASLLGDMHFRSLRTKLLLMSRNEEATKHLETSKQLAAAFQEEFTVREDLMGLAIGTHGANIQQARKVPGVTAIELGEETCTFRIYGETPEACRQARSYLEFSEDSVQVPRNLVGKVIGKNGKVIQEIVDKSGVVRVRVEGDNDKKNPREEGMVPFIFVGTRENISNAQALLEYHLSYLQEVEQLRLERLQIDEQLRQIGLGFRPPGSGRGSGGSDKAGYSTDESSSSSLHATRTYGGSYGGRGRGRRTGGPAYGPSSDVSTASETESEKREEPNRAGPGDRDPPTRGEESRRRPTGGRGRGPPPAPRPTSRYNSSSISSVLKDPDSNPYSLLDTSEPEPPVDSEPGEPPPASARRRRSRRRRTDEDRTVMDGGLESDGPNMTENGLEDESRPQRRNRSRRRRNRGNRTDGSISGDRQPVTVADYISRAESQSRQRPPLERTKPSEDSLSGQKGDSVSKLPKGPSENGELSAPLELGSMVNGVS
UniProt P51114: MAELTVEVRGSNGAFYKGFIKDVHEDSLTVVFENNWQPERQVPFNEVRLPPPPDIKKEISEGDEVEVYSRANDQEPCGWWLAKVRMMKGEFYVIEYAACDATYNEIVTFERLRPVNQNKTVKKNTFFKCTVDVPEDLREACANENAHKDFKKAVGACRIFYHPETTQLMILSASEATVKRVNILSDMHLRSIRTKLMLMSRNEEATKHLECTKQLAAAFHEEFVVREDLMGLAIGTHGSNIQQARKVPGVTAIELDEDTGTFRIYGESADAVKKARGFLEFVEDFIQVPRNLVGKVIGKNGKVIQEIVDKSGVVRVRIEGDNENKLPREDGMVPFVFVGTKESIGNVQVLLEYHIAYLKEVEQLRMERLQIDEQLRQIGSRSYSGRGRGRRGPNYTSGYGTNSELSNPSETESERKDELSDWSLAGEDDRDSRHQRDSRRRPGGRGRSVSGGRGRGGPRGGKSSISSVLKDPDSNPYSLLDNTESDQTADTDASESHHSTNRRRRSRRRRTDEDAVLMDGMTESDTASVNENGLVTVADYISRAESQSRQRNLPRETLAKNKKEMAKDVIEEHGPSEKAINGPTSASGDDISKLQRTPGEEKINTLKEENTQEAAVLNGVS
UniProt Q86U44: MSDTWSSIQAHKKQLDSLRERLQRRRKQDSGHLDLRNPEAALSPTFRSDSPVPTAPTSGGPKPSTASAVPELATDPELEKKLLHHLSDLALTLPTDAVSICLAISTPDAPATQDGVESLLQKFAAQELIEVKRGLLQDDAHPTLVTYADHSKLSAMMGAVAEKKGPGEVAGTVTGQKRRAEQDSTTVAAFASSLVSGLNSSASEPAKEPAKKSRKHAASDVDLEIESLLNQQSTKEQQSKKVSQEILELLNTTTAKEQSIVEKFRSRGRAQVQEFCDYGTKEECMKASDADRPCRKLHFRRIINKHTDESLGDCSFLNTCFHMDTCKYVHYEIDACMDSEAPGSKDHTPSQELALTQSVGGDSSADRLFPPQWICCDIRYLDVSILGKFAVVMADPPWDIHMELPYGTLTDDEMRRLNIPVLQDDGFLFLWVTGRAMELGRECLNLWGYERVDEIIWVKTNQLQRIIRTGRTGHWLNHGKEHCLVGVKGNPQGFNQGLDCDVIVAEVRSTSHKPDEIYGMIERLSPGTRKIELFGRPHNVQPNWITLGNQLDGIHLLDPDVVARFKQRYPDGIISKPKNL
UniProt Q5T200: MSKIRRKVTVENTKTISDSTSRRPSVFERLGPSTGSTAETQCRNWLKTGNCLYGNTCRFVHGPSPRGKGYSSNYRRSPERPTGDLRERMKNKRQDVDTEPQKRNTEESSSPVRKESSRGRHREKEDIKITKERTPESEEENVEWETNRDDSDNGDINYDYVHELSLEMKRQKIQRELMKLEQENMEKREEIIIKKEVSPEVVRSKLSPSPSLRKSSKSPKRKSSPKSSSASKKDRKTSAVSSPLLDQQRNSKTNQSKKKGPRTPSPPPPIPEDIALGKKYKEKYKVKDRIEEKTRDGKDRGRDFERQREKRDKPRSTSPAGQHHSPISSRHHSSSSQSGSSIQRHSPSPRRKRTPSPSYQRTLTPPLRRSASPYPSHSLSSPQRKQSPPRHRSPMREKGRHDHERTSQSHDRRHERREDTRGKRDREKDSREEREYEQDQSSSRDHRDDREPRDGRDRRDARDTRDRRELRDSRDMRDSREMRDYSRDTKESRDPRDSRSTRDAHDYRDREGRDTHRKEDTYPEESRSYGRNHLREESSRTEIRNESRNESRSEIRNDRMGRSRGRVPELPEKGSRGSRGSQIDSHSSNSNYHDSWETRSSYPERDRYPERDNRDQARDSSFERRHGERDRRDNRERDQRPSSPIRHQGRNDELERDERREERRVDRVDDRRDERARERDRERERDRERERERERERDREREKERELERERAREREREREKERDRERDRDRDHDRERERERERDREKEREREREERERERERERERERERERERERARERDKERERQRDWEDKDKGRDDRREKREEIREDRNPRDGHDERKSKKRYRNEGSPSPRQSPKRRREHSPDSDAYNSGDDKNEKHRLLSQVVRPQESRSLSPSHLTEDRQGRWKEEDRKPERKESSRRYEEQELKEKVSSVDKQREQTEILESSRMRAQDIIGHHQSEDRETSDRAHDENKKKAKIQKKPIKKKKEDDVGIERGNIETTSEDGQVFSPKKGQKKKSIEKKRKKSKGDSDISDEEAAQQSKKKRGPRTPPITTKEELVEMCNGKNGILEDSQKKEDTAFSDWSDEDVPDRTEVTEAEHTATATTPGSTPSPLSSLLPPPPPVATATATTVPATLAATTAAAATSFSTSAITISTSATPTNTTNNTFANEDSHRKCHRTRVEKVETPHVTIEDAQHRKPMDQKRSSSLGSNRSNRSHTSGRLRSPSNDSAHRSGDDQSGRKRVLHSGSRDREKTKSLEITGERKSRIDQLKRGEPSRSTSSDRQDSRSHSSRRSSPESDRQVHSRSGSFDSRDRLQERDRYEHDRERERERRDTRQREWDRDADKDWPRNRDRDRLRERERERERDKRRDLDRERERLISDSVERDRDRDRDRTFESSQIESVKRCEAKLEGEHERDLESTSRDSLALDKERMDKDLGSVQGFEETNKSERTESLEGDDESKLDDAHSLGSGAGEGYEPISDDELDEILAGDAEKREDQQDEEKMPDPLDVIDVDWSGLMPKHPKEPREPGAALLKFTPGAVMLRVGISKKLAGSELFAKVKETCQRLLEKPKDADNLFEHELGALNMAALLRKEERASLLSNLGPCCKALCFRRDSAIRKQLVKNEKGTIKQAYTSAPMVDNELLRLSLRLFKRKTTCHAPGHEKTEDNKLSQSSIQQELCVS


Biological target: T1, CBLL1 (human (endogenous in HUVEC))
Assay: affinity purification with mass spectrometry; endogenous CBLL1 immunopurified from HUVEC whole cell lysates (lysis buffer with 250 mM KCl, 0.1% NP-40, Benzonase) with anti-CBLL1 monoclonal antibodies cross-linked to Dynabeads Protein G, 4 h at 4 °C; washed with 0.5 M KCl-HEGN and 0.1 M KCl-HEGN; shotgun LC/MS/MS; negative control anti-gp64 antibody

binding | Molecule
binds | BCLAF1 (from UniProt Q9NYF8 1-920)
binds | DDX3X (from UniProt O00571 1-662)
binds | FXR2 (from UniProt P51116 1-673)
binds | Fragile X mental retardation syndrome-related protein 1 (from UniProt P51114 1-621)
binds | METTL3 (from UniProt Q86U44 1-580)
binds | VIRMA (from UniProt Q69YN4 1-1812)
binds | ZC3H13 (from UniProt Q5T200 1-1668)
binds | symplekin (protein, UniProt Q92797 1-1274) MASGSGDSVTRRSVASQFFTQEEGPGIDGMTTSERVVDLLNQAALITNDSKITVLKQVQELIINKDPTLLDNFLDEIIAFQADKSIEVRKFVIGFIEEACKRDIELLLKLIANLNMLLRDENVNVVKKAILTMTQLYKVALQWMVKSRVISELQEACWDMVSAMAGDIILLLDSDNDGIRTHAIKFVEGLIVTLSPRMADSEIPRRQEHDISLDRIPRDHPYIQYNVLWEEGKAALEQLLKFMVHPAISSINLTTALGSLANIARQRPMFMSEVIQAYETLHANLPPTLAKSQVSSVRKNLKLHLLSVLKHPASLEFQAQITTLLVDLGTPQAEIARNMPSSKDTRKRPRDDSDSTLKKMKLEPNLGEDDEDKDLEPGPSGTSKASAQISGQSDTDITAEFLQPLLTPDNVANLVLISMVYLPEAMPASFQAIYTPVESAGTEAQIKHLARLMATQMTAAGLGPGVEQTKQCKEEPKEEKVVKTESVLIKRRLSAQGQAISVVGSLSSMSPLEEEAPQAKRRPEPIIPVTQPRLAGAGGRKKIFRLSDVLKPLTDAQVEAMKLGAVKRILRAEKAVACSGAAQVRIKILASLVTQFNSGLKAEVLSFILEDVRARLDLAFAWLYQEYNAYLAAGASGSLDKYEDCLIRLLSGLQEKPDQKDGIFTKVVLEAPLITESALEVVRKYCEDESRTYLGMSTLRDLIFKRPSRQFQYLHVLLDLSSHEKDKVRSQALLFIKRMYEKEQLREYVEKFALNYLQLLVHPNPPSVLFGADKDTEVAAPWTEETVKQCLYLYLALLPQNHKLIHELAAVYTEAIADIKRTVLRVIEQPIRGMGMNSPELLLLVENCPKGAETLVTRCLHSLTDKVPPSPELVKRVRDLYHKRLPDVRFLIPVLNGLEKKEVIQALPKLIKLNPIVVKEVFNRLLGTQHGEGNSALSPLNPGELLIALHNIDSVKCDMKSIIKATNLCFAERNVYTSEVLAVVMQQLMEQSPLPMLLMRTVIQSLTMYPRLGGFVMNILSRLIMKQVWKYPKVWEGFIKCCQRTKPQSFQVILQLPPQQLGAVFDKCPELREPLLAHVRSFTPHQQAHIPNSIMTILEASGKQEPEAKEAPAGPLEEDDLEPLTLAPAPAPRPPQDLIGLRLAQEKALKRQLEEEQKLKPGGVGAPSSSSPSPSPSARPGPPPSEEAMDFREEGPECETPGIFISMDDDSGLTEAALLDSSLEGPLPKETAAGGLTLKEERSPQTLAPVGEDAMKTPSPAAEDAREPEAKGNS
binds | polymerase delta-interacting protein 3 (protein, UniProt Q9BY77 1-421) MADISLDELIRKRGAAAKGRLNARPGVGGVRSRVGIQQGLLSQSTRTATFQQRFDARQKIGLSDARLKLGVKDAREKLLQKDARFRIKGKVQDAREMLNSRKQQTTVPQKPRQVADAREKISLKRSSPAAFINPPIGTVTPALKLTKTIQVPQQKAMAPLHPHPAGMRINVVNNHQAKQNLYDLDEDDDGIASVPTKQMKFAASGGFLHHMAGLSSSKLSMSKALPLTKVVQNDAYTAPALPSSIRTKALTNMSRTLVNKEEPPKELPAAEPVLSPLEGTKMTVNNLHPRVTEEDIVELFCVCGALKRARLVHPGVAEVVFVKKDDAITAYKKYNNRCLDGQPMKCNLHMNGNVITSDQPILLRLSDSPSMKKESELPRRVNSASSSNPPAEVDPDTILKALFKSSGASVTTQPTEFKIKL
binds | THRAP3 (protein, UniProt Q9Y2W1 1-955) MSKTNKSKSGSRSSRSRSASRSRSRSFSKSRSRSRSLSRSRKRRLSSRSRSRSYSPAHNRERNHPRVYQNRDFRGHNRGYRRPYYFRGRNRGFYPWGQYNRGGYGNYRSNWQNYRQAYSPRRGRSRSRSPKRRSPSPRSRSHSRNSDKSSSDRSRRSSSSRSSSNHSRVESSKRKSAKEKKSSSKDSRPSQAAGDNQGDEAKEQTFSGGTSQDTKASESSKPWPDATYGTGSASRASAVSELSPRERSPALKSPLQSVVVRRRSPRPSPVPKPSPPLSSTSQMGSTLPSGAGYQSGTHQGQFDHGSGSLSPSKKSPVGKSPPSTGSTYGSSQKEESAASGGAAYTKRYLEEQKTENGKDKEQKQTNTDKEKIKEKGSFSDTGLGDGKMKSDSFAPKTDSEKPFRGSQSPKRYKLRDDFEKKMADFHKEEMDDQDKDKAKGRKESEFDDEPKFMSKVIGANKNQEEEKSGKWEGLVYAPPGKEKQRKTEELEEESFPERSKKEDRGKRSEGGHRGFVPEKNFRVTAYKAVQEKSSSPPPRKTSESRDKLGAKGDFPTGKSSFSITREAQVNVRMDSFDEDLARPSGLLAQERKLCRDLVHSNKKEQEFRSIFQHIQSAQSQRSPSELFAQHIVTIVHHVKEHHFGSSGMTLHERFTKYLKRGTEQEAAKNKKSPEIHRRIDISPSTFRKHGLAHDEMKSPREPGYKAEGKYKDDPVDLRLDIERRKKHKERDLKRGKSRESVDSRDSSHSRERSAEKTEKTHKGSKKQKKHRRARDRSRSSSSSSQSSHSYKAEEYTEETEEREESTTGFDKSRLGTKDFVGPSERGGGRARGTFQFRARGRGWGRGNYSGNNNNNSNNDFQKRNREEEWDPEYTPKSKKYYLHDDREGEGSDKWVSRGRGRGAFPRGRGRFMFRKSSTSPKWAHDKFSGEEGEIEDDESGTENREEKDNIQPTTE
binds | FIP1 (protein, UniProt Q6UN15 1-594) MSAGEVERLVSELSGGTGGDEEEEWLYGGPWDVHVHSDLAKDLDENEVERPEEENASANPPSGIEDETAENGVPKPKVTETEDDSDSDSDDDEDDVHVTIGDIKTGAPQYGSYGTAPVNLNIKTGGRVYGTTGTKVKGVDLDAPGSINGVPLLEVDLDSFEDKPWRKPGADLSDYFNYGFNEDTWKAYCEKQKRIRMGLEVIPVTSTTNKITAEDCTMEVTPGAEIQDGRFNLFKVQQGRTGNSEKETALPSTKAEFTSPPSLFKTGLPPSRNSTSSQSQTSTASRKANSSVGKWQDRYGRAESPDLRRLPGAIDVIGQTITISRVEGRRRANENSNIQVLSERSATEVDNNFSKPPPFFPPGAPPTHLPPPPFLPPPPTVSTAPPLIPPPGFPPPPGAPPPSLIPTIESGHSSGYDSRSARAFPYGNVAFPHLPGSAPSWPSLVDTSKQWDYYARREKDRDRERDRDRERDRDRDRERERTRERERERDHSPTPSVFNSDEERYRYREYAERGYERHRASREKEERHRERRHREKEETRHKSSRSNSRRRHESEEGDSHRRHKHKKSKRSKEGKEAGSEPAPEQESTEATPAE
binds | RBM15 (protein, UniProt Q96T37 1-977) MRTAGRDPVPRRSPRWRRAVPLCETSAGRRVTQLRGDDLRRPATMKGKERSPVKAKRSRGGEDSTSRGERSKKLGGSGGSNGSSSGKTDSGGGSRRSLHLDKSSSRGGSREYDTGGGSSSSRLHSYSSPSTKNSSGGGESRSSSRGGGGESRSSGAASSAPGGGDGAEYKTLKISELGSQLSDEAVEDGLFHEFKRFGDVSVKISHLSGSGSGDERVAFVNFRRPEDARAAKHARGRLVLYDRPLKIEAVYVSRRRSRSPLDKDTYPPSASVVGASVGGHRHPPGGGGGQRSLSPGGAALGYRDYRLQQLALGRLPPPPPPPLPRDLERERDYPFYERVRPAYSLEPRVGAGAGAAPFREVDEISPEDDQRANRTLFLGNLDITVTESDLRRAFDRFGVITEVDIKRPSRGQTSTYGFLKFENLDMSHRAKLAMSGKIIIRNPIKIGYGKATPTTRLWVGGLGPWVPLAALAREFDRFGTIRTIDYRKGDSWAYIQYESLDAAHAAWTHMRGFPLGGPDRRLRVDFADTEHRYQQQYLQPLPLTHYELVTDAFGHRAPDPLRGARDRTPPLLYRDRDRDLYPDSDWVPPPPPVRERSTRTAATSVPAYEPLDSLDRRRDGWSLDRDRGDRDLPSSRDQPRKRRLPEESGGRHLDRSPESDRPRKRHCAPSPDRSPELSSSRDRYNSDNDRSSRLLLERPSPIRDRRGSLEKSQGDKRDRKNSASAERDRKHRTTAPTEGKSPLKKEDRSDGSAPSTSTASSKLKSPSQKQDGGTAPVASASPKLCLAWQGMLLLKNSNFPSNMHLLQGDLQVASSLLVEGSTGGKVAQLKITQRLRLDQPKLDEVTRRIKVAGPNGYAILLAVPGSSDSRSSSSSAASDTATSTQRPLRNLVSYLKQKQAAGVISLPVGGNKDKENTGVLHAFPPCEFSQQFLDSPAKALAKSEEDYLVMIIVRGFGFQIGVRYENKKRENLALTLL

— PMC8605363
